According to publication PMC10286367:
Results are given in words; binding and its absence hold for the method and conditions named. Binding seen in cells or lysates may run through a third protein. Some binding calls cover weakened binding; strength is not graded here.

Sequences of proteins named here, by UniProt entry; tags and fusion partners are left off.
UniProt Q04207: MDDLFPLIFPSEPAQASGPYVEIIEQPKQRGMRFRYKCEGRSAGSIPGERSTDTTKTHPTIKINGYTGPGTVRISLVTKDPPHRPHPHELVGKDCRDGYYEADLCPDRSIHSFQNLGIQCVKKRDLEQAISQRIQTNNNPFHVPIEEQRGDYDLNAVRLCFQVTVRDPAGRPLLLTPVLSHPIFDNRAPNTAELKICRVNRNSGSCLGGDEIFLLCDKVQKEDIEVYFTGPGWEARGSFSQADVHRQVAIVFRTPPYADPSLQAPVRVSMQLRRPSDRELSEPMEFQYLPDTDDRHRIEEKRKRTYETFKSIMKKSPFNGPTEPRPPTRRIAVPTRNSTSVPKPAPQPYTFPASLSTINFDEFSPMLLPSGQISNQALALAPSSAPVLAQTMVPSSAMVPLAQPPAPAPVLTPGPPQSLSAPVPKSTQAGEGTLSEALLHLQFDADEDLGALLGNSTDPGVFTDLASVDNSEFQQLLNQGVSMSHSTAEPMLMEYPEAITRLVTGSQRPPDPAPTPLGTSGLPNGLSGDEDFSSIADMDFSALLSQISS

Biological target: T1, O-GlcNAc transferase (Ogt) (mouse (endogenous in primary astrocytes and hippocampal tissue)) (UniProt Q8CGY8)
T1 sequence: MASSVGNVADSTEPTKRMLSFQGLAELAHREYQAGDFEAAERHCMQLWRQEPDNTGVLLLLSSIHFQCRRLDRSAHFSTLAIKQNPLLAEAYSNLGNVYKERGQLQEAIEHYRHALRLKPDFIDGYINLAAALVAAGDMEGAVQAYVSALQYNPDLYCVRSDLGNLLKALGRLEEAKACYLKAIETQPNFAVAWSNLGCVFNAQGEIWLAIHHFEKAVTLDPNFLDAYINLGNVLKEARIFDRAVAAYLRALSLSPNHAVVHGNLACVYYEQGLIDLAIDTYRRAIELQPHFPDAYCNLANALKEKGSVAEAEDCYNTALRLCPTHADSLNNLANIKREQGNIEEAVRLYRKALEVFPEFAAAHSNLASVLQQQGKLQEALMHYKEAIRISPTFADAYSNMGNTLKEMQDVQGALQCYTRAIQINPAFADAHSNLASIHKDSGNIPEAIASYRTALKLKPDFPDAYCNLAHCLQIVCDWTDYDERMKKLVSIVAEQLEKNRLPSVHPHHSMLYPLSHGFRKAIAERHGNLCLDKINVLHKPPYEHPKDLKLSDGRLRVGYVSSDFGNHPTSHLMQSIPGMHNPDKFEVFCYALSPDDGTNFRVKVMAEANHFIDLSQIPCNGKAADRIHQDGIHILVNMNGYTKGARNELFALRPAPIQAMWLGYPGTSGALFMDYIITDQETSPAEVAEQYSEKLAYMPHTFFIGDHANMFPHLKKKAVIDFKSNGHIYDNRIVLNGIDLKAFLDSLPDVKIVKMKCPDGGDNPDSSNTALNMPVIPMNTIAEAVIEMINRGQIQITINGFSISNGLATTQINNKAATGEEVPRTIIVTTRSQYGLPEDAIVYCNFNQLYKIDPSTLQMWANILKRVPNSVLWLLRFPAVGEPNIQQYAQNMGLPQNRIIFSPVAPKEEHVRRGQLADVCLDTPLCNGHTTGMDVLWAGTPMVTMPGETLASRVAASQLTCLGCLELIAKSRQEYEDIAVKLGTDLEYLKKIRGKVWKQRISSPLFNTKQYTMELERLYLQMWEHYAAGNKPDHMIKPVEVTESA
Test: co-IP; endogenous reciprocal IP-WB in cultured primary mouse astrocytes; cells crosslinked with 1% formaldehyde for 10 min, lysed with IP Lysis Buffer (50 mM Tris-HCl, 0.5% Triton-X, 150 mM KCl, 1 mM EDTA); Protein A agarose beads, 4 °C

binding: binds
Substance: NF-κB p65 (from UniProt Q04207 1-549)
